Among the data in PubChem BioAssay AID493014 (National Center for Advancing Translational Sciences (NCATS), 2011) are AC50 values, retold here.

The list shows a part of the results. Further columns of the screen follow, without active or inactive calls. Compounds called inactive in the main read-out are mostly missing here. Words in brackets tell the shape of the fitted curve; partial curves, single points and poor fits give uncertain potencies.

The experiment is described as follows: qHTS Assay to Find Inhibitors of Chronic Active B-Cell Receptor Signaling. The note with it: ABC-DLBCL IkBa-CBG/CBR reporter, luminescence ratio (green luciferase fused to IkBa over red control in TMD8 lymphoma cells), 4 h. In a few lines:
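TMD8 human ABC-DLBCL cells with doxycycline-inducible IκBα–green luciferase fusion and unfused red luciferase, in 0.5% FBS medium; compounds up to 46 uM, 4 h at 37C. Green/red luminescence ratio, filter-overlap corrected, fitted to concentration-response curves.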

The mark [1] stands for this setting: measured here: CBR red luminescence, cell number.
The mark [2] stands for this setting: measured here: IkBa-CBG green luminescence.

As for `Clc1ccccc1Cn1nnc2c(Nc3ccccc3)ncnc21`, under setting [1], the AC50 was 12.6 µM [falling, partial curve, poor fit].
On the same count and under the same terms, to `COc1ccccc1CN1CCNC(=O)C1CC(=O)N(C)Cc1cnccn1` (stereo unspecified) belongs 15.8 µM [rising, single point]; to `Cc1ccc(OCCCC(=O)Nc2ccc(Cl)c(S(=O)(=O)N3CCOCC3)c2)cc1`, 29.1 µM [falling, single point]; to `Cc1cc(=O)[nH]c(SCC(=O)Nc2ccccc2[N+](=O)[O-])n1`, 22.4 µM [rising, single point].
The same measure, in the same setting: to `CCOC(=O)c1cc2sccc2n1CC(=O)C(C)(C)C` belongs 5.62 µM [rising, single point].
On to `O=[N+]([O-])c1ccc(-c2cnc(SC(c3ccccc3)c3ccccc3)[nH]2)cc1`, for which the AC50 under setting [1] is 20.6 µM [falling, partial curve, poor fit].
For the compound `CCOc1ccccc1C1CC(c2cccs2)=NN1S(C)(=O)=O` (stereo unspecified), the AC50 under setting [1] was 12.6 µM [rising, single point].
On the same count and under the same terms, to `CN(C)c1ccc(/C=C/c2cccc[n+]2[O-])cc1` belongs 35.5 µM [falling, single point]; to `COc1ccc(-c2ccc(C#N)c(OC)n2)cc1`, 11.2 µM [rising, partial curve, poor fit].
On to `COC(=O)c1ccc(C)c(-n2c(=O)n(Cc3ccccc3)c(=O)c3[nH]cnc32)c1`, for which the AC50 reads like this: under setting [1], 2.51 µM [rising, partial curve, poor fit]; under setting [2], 3.55 µM [falling, partial curve, poor fit].
Regarding `Cn1c2ccccc2c2ncn(CCC3=CCCCC3)c(=O)c21`, the AC50 under setting [1] was 35.5 µM [falling, single point].
Still for that read-out and setting: under `COCCCNC(=O)c1cc2c(=O)n(C)c3ccccc3c2n1C` stands 10.3 µM [rising, partial curve, poor fit]; under `NC(=O)C1CCN(CC(O)COCc2ccccc2Cl)CC1` (stereo unspecified), 10 µM [rising, partial curve, poor fit]; under `CCOc1ccc(N=Nc2ccc(O)c3ncccc23)cc1`, 35.5 µM [rising, single point].
For the compound `Cc1cc(C)cc(NC(=O)CSc2nc3nc(C)cc(C)c3c(=O)[nH]2)c1`, under setting [1], the AC50 was 20.6 µM [falling, single point].
The same measure, in the same setting: to `O=C(COC(=O)c1ccc(S(=O)(=O)N2CCc3ccccc3C2)cc1)NC(=O)NCc1ccco1` belongs 29.1 µM [rising, single point]; to `O=C(c1cccs1)c1coc2ccc(O)cc12`, 29.1 µM [falling, single point].
The same measure, in the same setting: under `Cc1cc(-c2nnc(SCC(=O)Nc3nccs3)o2)no1` stands 3.16 µM [rising, full curve, poor fit]; under `CCN(CCCNC(=O)CCCCn1c(=O)[nH]c2ccccc2c1=O)c1ccccc1`, 6.31 µM [falling, single point]; under `Cc1cc(C)c[n+](-c2nc3ccccc3nc2[N-]S(=O)(=O)c2ccc(Cl)cc2)c1`, 18.4 µM [falling, single point].
In the case of `Cc1cc(C)c(NC(=O)CSc2nc3ccc(N4C(=O)c5ccccc5C4=O)cc3s2)c(C)c1`, the AC50 under setting [1] is 1 µM [rising, full curve].
On the same count and under the same terms, under `O=C1CC2C(CC(OC(=O)c3ccc(-c4ccccc4)cc3)C2CO)O1` (stereo unspecified) stands 2.91 µM [rising, full curve, poor fit]; under `CCn1c2ccccc2c2cc(NC(=O)COC(=O)C3CCC(=O)N3)ccc21` (stereo unspecified), 3.16 µM [rising, single point]; under `c1cncc(-c2nc3cc4ccccc4cc3[nH]2)c1`, 35.5 µM [falling, partial curve, poor fit].
Same read-out and setting: under `COc1cc(C#Cc2c(-c3cncn3C)n(C)c3ccc(-c4ccc(OC)nc4)cc23)cc(OC)c1` stands 5.17 µM [falling, partial curve, poor fit]; under `COc1ccc(-n2nc3c(N4CCC(C(=O)NCc5cccc(C)c5)CC4)nnc(C)c3c2C)cc1`, 17.8 µM [falling, single point]; under `O=S(=O)(c1cccs1)N1CCN(c2ccc(Cl)cc2)CC1`, 4.47 µM [rising, full curve, poor fit].
Same read-out and setting: under `O=C(Nc1ccc(Cl)cc1)N1CCc2[nH]c3ccccc3c2C1` stands 5.62 µM [falling, full curve, poor fit].
Consider `Cc1ccc(/C=C2\SC(=S)N(CCC(=O)NNS(=O)(=O)c3ccccc3)C2=O)cc1`, for which the AC50 under setting [1] was 3.55 µM [falling, partial curve, poor fit].
Still for that read-out and setting: under `COc1cc2ccccc2cc1C(=O)Nc1cc(C)ccn1` stands 14.1 µM [falling, single point]; under `Cc1ccc2oc(=O)c(/C=C(\O)c3cccs3)nc2c1`, 6.31 µM [rising, single point].
On the same count and under the same terms, to `CS(=O)(=O)c1ccc2nc(NC(=O)c3ccc(NS(=O)(=O)c4cccc([N+](=O)[O-])c4)cc3)sc2c1` belongs 12.6 µM [falling, partial curve, poor fit].
For `O=C(Nc1cccc(S(=O)(=O)N2CCCC2)c1)c1cncc(Br)c1`, under setting [1], the AC50 is 29.1 µM [falling, single point].
Same read-out and setting: under `COc1cc(OC)c2c(-c3cccc(-c4ccc(OC)c(OC)c4)c3)cc(=O)oc2c1` stands 0.82 µM [rising, full curve, poor fit].
On the same count and under the same terms, under `Cc1nnc(NC(=O)Cn2c(=O)sc3ccccc32)s1` stands 18.4 µM [rising, partial curve].
Same read-out and setting: under `Cc1ccc(OCCCc2c(C)n[nH]c2C)cc1` stands 35.5 µM [rising, partial curve, poor fit]; under `CS(=O)(=O)c1ccc(Cl)c(NC(=O)c2cccc(N3C(=O)CCC3=O)c2)c1`, 20.6 µM [rising, single point]; under `COCCNC(=O)COc1ccc(C)cc1C`, 0.651 µM [rising, full curve].
Turning to `Cc1nnc(N/N=C\c2ccc(-c3cccc(C(=O)O)c3)o2)n1N`, the AC50 under setting [1] is 11.2 µM [falling, partial curve].
Turning to `Cc1nc(-c2cccc(NC(=O)c3ccc(Br)o3)c2)cs1`, the AC50 under setting [1] is 3.16 µM [falling, partial curve, poor fit].
On the same count and under the same terms, under `COc1ccc(C(=O)NNC(=O)Cc2nc3ccccc3n2C)cc1` stands 4.11 µM [rising, single point].
On the same count and under the same terms, to `CCCCCn1c(C)c2c(OCC)cccc(=O)c2c1C` belongs 3.98 µM [rising, partial curve, poor fit]; to `COc1ccc(C(=O)Nc2ccc(S(=O)(=O)NC(C)C)cc2)cc1`, 29.1 µM [falling, single point]; to `Cc1ccc(NC(=O)c2sc3nc(N)c(C#N)cc3c2N)cc1`, 9.2 µM [falling, partial curve, poor fit].
With `Brc1ccc(-c2cn3ccccc3n2)s1`, under setting [1], the AC50 was 0.184 µM [rising, partial curve, poor fit].
Same read-out and setting: to `CC1=CC(=O)C=C(C)C1=NOC(=O)/C=C\c1ccccc1` belongs 29.1 µM [falling, single point].
Turning to `O=C(Nc1ncc2c(n1)-c1ccccc1OC2)c1cccc([N+](=O)[O-])c1`, the AC50 is, setting by setting: under setting [1], 8.91 µM [falling, partial curve]; under setting [2], 25.1 µM [rising, partial curve, poor fit].
For the compound `CC(C)(C)OC(=O)N1CCN(C(=O)c2ncn(Cc3ccccc3)c2C(=O)N2CCN(C(=O)OC(C)(C)C)CC2)CC1`, under setting [1], the AC50 is 2.91 µM [rising, full curve, poor fit].
As for `Cc1cc(N2CCN(c3ccccn3)CC2)n2cc(-c3ccccc3)nc2n1`, the AC50 under setting [1] was 9.2 µM [falling, single point].
As to `O=C(CSc1ncccc1C(=O)O)c1ccccc1F`, under setting [1], the AC50 was 7.94 µM [rising, partial curve].
On the same count and under the same terms, under `COc1ccc(C2=Nn3c(nnc3-c3ccco3)SC2)cc1` stands 29.1 µM [falling, single point].
Still for that read-out and setting: to `CCOC(=O)N1CCC(=NNC(=O)COc2ccc(OC)cc2)CC1` belongs 14.6 µM [falling, partial curve, poor fit]; to `O=C(NCCc1ccncc1)Nc1ccccc1Cl`, 3.26 µM [falling, full curve].
Still for that read-out and setting: under `CC(C)(C)c1cc(=O)[nH]c(SCc2ccccc2Cl)n1` stands 35.5 µM [falling, single point]; under `COc1ccc(NC(=O)N2CCN(c3nc(-c4cccc(OC)c4)cs3)CC2)cc1`, 29.1 µM [falling, single point].
Take `COc1ccc(CCNC(=O)Nc2cc(F)c(F)cc2Cl)cc1OC`: under setting [1], the AC50 was 3.55 µM [rising, partial curve, poor fit].
On the same count and under the same terms, to `CC(=O)Nc1ccc(NC(=O)C(C)OC(=O)C2CC(=O)N(CCc3ccccc3)C2)cc1` (stereo unspecified) belongs 20.6 µM [rising, partial curve, poor fit]; to `O=C(Nc1cc(Cl)ccc1O)C1CCCO1` (stereo unspecified), 12.6 µM [rising, partial curve, poor fit]; to `O=C(Nc1cccc(O)c1)c1noc2c1CCCCC2`, 11.6 µM [falling, partial curve, poor fit].
Still for that read-out and setting: under `Cc1nc2cc(NC(=O)c3ccc(Br)s3)ccc2s1` stands 12.6 µM [falling, partial curve]; under `Cc1ccc(C(=O)c2sc(Nc3ccccc3)c(C#N)c2N)cc1`, 2.31 µM [rising, partial curve].
Consider `CC[C@@H]1C(c2ccccc2)=NN(c2ccccc2)[C@H]1C(=O)N1CCOC1=O`, for which the AC50 under setting [1] was 1.84 µM [falling, full curve, poor fit].
Still for that read-out and setting: under `COC(=O)c1c(NC(=O)c2ccccc2OC)sc(C(=O)N2CCOCC2)c1C` stands 11.2 µM [falling, partial curve]; under `Cc1c(NS(=O)(=O)c2cc(C(=O)NCCN(C)C)ccc2Cl)c(=O)n(-c2ccccc2)n1C`, 3.98 µM [rising, partial curve, poor fit].
